# Laboratory results reported in the supplement of paper PMC12819154, “High-throughput peptide-centric local stability assay extends protein–ligand identification to membrane proteins, tissues and bacteria” (Nature Structural & Molecular Biology, 2025).
# The chains behind the UniProt entries cited, without tags or fusion partners. Where a name states a change or a piece, a line headed by the entry shows the natural chain unless it says otherwise.
# UniProt Q7Z6V5: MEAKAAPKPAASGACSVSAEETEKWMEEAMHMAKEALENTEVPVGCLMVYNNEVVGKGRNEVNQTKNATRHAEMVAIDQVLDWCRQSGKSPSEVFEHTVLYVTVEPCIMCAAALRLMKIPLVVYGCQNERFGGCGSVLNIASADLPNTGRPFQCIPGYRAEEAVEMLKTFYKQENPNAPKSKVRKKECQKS
# UniProt Q6UXG8: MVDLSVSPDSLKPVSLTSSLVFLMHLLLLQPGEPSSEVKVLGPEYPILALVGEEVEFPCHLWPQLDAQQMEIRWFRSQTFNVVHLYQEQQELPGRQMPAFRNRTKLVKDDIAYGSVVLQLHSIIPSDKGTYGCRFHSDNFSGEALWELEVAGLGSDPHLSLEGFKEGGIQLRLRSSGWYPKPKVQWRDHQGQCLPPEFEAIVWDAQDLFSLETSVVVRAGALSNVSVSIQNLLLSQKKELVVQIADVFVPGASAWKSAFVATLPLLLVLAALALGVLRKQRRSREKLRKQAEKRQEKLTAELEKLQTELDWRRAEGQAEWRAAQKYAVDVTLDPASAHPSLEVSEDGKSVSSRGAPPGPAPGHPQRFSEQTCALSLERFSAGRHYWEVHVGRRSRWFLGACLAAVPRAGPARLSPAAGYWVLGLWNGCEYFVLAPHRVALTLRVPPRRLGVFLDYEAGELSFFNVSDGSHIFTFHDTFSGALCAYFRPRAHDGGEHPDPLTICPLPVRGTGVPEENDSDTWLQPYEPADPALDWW
# UniProt Q7Z494: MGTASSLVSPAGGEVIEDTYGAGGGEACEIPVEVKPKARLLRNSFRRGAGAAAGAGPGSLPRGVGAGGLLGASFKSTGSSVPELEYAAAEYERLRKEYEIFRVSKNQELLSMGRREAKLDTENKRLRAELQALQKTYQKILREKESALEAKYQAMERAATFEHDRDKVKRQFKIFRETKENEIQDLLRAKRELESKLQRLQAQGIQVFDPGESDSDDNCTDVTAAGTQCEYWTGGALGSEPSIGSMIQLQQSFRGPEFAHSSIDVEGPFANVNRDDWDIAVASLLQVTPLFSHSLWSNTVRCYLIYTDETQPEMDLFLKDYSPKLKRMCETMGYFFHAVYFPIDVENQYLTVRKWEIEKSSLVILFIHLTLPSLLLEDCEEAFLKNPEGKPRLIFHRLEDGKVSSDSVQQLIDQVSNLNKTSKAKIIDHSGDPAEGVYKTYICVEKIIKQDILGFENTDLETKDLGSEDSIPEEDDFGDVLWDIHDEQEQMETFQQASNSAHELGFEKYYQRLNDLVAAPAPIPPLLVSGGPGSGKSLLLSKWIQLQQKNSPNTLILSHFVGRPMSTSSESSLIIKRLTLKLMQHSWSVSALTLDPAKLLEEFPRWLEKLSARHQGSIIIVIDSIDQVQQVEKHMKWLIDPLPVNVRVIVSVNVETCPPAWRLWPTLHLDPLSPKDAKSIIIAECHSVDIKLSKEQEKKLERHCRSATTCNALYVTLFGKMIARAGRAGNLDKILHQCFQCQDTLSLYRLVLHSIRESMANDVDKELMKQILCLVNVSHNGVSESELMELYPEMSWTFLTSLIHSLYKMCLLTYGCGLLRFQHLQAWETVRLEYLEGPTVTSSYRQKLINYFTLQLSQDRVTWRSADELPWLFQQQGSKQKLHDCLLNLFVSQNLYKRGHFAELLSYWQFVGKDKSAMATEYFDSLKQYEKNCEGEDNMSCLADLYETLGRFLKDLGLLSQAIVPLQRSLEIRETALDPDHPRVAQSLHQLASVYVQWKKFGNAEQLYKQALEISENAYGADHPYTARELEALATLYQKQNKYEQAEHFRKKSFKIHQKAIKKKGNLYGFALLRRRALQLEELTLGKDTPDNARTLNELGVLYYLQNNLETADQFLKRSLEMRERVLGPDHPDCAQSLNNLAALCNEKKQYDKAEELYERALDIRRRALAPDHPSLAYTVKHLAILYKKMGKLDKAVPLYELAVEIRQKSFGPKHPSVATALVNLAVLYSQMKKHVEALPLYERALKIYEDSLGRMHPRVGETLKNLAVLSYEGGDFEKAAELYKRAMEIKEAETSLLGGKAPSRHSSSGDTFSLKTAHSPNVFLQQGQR
# UniProt Q6ZW49, whole entry: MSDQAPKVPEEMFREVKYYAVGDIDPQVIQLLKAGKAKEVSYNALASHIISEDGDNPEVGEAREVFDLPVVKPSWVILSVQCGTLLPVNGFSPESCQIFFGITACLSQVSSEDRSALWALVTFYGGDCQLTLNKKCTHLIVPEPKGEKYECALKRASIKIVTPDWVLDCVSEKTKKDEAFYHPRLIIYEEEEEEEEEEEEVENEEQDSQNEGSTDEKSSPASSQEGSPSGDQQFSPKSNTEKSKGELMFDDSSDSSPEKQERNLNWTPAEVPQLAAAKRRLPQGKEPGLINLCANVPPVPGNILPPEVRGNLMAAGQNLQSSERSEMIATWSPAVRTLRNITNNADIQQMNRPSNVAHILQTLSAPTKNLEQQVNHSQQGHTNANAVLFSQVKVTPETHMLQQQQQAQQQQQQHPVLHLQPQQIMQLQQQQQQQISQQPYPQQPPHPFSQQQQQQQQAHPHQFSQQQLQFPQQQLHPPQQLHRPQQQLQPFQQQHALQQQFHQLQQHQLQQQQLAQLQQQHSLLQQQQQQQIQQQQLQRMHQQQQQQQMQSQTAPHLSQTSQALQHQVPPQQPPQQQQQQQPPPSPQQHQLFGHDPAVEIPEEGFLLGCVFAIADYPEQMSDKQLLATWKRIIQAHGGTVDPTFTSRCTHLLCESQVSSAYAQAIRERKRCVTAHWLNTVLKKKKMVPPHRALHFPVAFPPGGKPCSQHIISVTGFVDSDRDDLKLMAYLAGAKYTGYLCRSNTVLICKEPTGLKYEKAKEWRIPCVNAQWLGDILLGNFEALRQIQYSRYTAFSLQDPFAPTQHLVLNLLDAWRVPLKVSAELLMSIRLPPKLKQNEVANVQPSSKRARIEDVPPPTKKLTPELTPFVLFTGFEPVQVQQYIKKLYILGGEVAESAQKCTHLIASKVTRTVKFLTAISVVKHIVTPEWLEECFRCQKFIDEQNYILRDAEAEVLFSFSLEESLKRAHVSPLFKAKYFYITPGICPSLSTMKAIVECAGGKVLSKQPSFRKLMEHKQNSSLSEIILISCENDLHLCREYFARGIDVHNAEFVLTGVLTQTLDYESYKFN
# UniProt Q6ZMW2: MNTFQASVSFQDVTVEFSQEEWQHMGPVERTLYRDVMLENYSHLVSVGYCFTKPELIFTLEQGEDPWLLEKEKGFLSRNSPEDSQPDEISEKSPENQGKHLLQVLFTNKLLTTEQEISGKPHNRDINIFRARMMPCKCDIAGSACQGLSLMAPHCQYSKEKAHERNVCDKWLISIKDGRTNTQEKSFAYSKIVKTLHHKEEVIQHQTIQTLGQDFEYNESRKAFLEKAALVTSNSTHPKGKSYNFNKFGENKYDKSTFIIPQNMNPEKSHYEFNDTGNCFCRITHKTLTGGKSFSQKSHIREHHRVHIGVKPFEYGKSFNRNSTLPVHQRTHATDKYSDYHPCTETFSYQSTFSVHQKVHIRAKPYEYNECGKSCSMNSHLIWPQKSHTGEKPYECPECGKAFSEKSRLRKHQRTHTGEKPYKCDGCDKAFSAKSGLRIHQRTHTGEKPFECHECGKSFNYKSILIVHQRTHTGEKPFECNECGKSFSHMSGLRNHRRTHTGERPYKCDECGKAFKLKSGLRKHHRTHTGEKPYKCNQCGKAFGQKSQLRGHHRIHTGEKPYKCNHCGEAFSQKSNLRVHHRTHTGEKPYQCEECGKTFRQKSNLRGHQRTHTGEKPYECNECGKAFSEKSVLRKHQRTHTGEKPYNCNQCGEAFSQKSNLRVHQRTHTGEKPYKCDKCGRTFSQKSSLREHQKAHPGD
# UniProt Q712K3: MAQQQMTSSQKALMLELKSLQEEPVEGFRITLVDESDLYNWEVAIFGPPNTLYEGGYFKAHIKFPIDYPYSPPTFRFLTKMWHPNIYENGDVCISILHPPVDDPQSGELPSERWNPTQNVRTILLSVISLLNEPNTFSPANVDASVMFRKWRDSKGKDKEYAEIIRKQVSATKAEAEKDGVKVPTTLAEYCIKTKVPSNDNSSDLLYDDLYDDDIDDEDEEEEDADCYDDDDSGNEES
# UniProt Q86UU1: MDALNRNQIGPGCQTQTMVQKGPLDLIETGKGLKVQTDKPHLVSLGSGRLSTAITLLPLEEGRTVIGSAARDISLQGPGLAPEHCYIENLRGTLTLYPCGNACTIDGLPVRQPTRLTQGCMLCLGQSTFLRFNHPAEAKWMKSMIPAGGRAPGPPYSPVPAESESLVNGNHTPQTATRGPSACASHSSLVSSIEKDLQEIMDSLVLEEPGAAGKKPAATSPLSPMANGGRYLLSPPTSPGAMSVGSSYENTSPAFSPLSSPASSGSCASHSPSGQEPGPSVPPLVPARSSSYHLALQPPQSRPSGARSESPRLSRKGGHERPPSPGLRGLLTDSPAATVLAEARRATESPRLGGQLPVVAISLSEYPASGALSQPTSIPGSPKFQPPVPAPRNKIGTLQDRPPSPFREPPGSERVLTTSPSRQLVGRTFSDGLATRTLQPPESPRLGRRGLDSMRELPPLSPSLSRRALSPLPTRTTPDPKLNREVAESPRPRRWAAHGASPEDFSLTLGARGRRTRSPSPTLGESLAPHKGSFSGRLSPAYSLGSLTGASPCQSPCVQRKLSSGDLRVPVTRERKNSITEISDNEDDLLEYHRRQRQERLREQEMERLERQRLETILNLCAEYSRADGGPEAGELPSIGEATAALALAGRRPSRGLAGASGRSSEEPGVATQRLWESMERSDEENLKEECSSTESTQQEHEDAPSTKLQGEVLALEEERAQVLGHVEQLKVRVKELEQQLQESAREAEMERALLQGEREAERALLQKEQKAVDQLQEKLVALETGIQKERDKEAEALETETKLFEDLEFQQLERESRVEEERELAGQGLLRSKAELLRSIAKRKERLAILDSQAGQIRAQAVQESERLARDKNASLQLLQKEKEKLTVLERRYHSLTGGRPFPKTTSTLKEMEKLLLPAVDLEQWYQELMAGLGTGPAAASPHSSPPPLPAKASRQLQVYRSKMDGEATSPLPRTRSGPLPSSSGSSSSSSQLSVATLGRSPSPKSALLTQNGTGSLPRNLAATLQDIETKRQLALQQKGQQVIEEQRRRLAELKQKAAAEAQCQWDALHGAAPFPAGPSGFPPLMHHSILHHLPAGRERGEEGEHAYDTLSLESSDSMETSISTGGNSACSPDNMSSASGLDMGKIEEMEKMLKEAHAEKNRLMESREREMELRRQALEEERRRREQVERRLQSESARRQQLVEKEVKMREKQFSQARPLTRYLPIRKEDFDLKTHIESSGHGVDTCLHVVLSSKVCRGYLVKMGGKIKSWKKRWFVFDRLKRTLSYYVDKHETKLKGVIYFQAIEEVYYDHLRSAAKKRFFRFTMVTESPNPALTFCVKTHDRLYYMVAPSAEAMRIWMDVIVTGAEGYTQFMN
# UniProt Q6ZTU2, whole entry: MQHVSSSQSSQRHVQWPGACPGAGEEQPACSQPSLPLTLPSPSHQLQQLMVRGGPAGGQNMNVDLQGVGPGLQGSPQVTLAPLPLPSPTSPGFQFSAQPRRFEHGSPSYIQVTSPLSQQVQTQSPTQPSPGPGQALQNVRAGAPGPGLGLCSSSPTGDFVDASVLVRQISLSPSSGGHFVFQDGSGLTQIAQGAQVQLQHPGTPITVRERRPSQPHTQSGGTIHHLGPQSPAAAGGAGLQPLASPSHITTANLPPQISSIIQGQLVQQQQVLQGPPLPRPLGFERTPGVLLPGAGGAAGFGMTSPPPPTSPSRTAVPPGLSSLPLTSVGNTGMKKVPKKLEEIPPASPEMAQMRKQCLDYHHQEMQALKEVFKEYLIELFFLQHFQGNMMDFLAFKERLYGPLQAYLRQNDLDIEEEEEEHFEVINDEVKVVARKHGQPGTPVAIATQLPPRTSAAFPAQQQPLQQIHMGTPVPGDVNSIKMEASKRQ
# UniProt Q7Z6J9: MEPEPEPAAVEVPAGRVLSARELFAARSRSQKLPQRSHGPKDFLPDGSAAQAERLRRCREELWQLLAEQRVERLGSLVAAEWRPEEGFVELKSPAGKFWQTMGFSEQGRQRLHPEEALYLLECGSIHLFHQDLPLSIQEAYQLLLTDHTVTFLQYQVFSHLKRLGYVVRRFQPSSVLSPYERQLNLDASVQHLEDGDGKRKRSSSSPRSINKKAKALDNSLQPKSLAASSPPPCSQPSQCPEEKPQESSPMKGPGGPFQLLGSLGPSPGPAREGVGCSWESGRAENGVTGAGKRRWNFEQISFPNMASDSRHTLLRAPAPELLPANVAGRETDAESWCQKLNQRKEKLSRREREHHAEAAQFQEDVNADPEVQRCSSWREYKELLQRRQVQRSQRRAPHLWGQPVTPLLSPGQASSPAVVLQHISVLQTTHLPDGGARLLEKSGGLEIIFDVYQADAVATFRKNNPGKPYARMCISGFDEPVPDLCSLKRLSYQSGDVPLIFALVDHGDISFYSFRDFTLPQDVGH
# This is one part of the list. Most entries show no effect beyond the scatter of the controls.
# Compound: Cc1nc(Nc2ncc(C(=O)Nc3c(C)cccc3Cl)s2)cc(N2CCN(CCO)CC2)n1 [dasatinib]
# Test: log2 fold change of tryptic peptide abundance, ligand vs vehicle (limited proteolysis) (log2 ratio); higher = more trypsin-susceptible (destabilized)
# Details: ligand concentration: 5 uM; sample: K562 cleared lysate
row,Target,log2 fold change
1,"USP34 (peptide sequence: MISSGHELTTDYDEK, peptide start residue: 1281) (UniProt Q70CQ2)",0.153
2,"SETX (peptide sequence: LCTCTEPIR, peptide start residue: 1226) (UniProt Q7Z333)",-0.501
3,"ADAT2 (peptide sequence: HAEMVAIDQVLDWCR, peptide start residue: 71) (UniProt Q7Z6V5)",-0.132
4,"DHX32 (peptide sequence: ANSLVMQPISQSQAEIRK, peptide start residue: 372) (UniProt Q7L7V1)",0.321
5,"ZNF813 (peptide sequence: HESHHTGDFR, peptide start residue: 77) (UniProt Q6ZN06)",-0.85
6,"UniProt Q7L804 (peptide sequence: LSSAHSMSDLSGSHMSSEK, peptide start residue: 222)",0.474
7,"BCOR (peptide sequence: SPPIPYPR, peptide start residue: 648) (UniProt Q6W2J9)",-0.216
8,"CDC37L1 (peptide sequence: SSVACKWNLAEAQQK, peptide start residue: 63) (UniProt Q7L3B6)",-0.305
9,"UniProt Q6ZRQ5 (peptide sequence: HFSGESYLCSGALKR, peptide start residue: 41)",0.45
10,"UniProt Q6UXG8 (peptide sequence: LQTELDWR, peptide start residue: 305)",-0.0177
11,"UniProt Q7Z494 (peptide sequence: FGNAEQLYK, peptide start residue: 1001)",0.812
12,"LPCAT2 (peptide sequence: EVQTTPSTASNK, peptide start residue: 517) (UniProt Q7L5N7)",-0.369
13,"GALNT5 (peptide sequence: VAACDPVKPYQK, peptide start residue: 920) (UniProt Q7Z7M9)",0.371
14,"UniProt Q86TP1 (peptide sequence: RSELPLRGDIVFFLQK, peptide start residue: 60)",0.709
15,"BCDIN3D (peptide sequence: KVLLSSFLSQFGR, peptide start residue: 143) (UniProt Q7Z5W3)",0.431
16,"PAXIP1 (peptide sequence: ARIEDVPPPTKK, peptide start residue: 849) (UniProt Q6ZW49)",-0.534
17,"UBE2Q1 (peptide sequence: GNTLLLQHLKR, peptide start residue: 141) (UniProt Q7Z7E8)",-0.221
18,"UniProt Q7L592 (peptide sequence: LSEIQALTLTK, peptide start residue: 161)",-0.243
19,"CENPV (peptide sequence: GAEHITTYTFNTHK, peptide start residue: 197) (UniProt Q7Z7K6)",0.233

# Looked up one by one from above (2):
row,Target,log2 fold change
15,"BCDIN3D (peptide sequence: KVLLSSFLSQFGR, peptide start residue: 143) (UniProt Q7Z5W3)",0.431
4,"DHX32 (peptide sequence: ANSLVMQPISQSQAEIRK, peptide start residue: 372) (UniProt Q7L7V1)",0.321

# Continuation:

row,Target,log2 fold change
1,"MON1B (peptide sequence: RCTAPGLALSVLAVGGR, peptide start residue: 267) (UniProt Q7L1V2)",0.291
2,"UniProt Q6ZMW2 (peptide sequence: AALVTSNSTHPK, peptide start residue: 228)",-0.129
3,"UniProt Q712K3 (peptide sequence: SLQEEPVEGFR, peptide start residue: 19)",-0.23
4,"PHLDB1 (peptide sequence: NSITEISDNEDDLLEYHRR, peptide start residue: 577) (UniProt Q86UU1)",0.672
5,"DPP9 (peptide sequence: KYSGLIVNKAPHDFQFVQK, peptide start residue: 43) (UniProt Q86TI2)",0.433
6,"UniProt Q7Z7L9 (peptide sequence: GGPQEEVTR, peptide start residue: 63)",0.115
7,"FAM83H (peptide sequence: DSFAQQLHQEAER, peptide start residue: 795) (UniProt Q6ZRV2)",0.453
8,"RINL (peptide sequence: SGPLPGEVNTYQIQKIPR, peptide start residue: 87) (UniProt Q6ZS11)",-0.466
9,"ASXL2 (peptide sequence: QHQQPFQVSPQPFLNRGDR, peptide start residue: 592) (UniProt Q76L83)",-0.618
10,"PACS1 (peptide sequence: GGAGGGPGGAGGGSGQR, peptide start residue: 5) (UniProt Q6VY07)",-0.152
11,"EP400P1 (peptide sequence: QCLDYHHQEMQALK, peptide start residue: 356) (UniProt Q6ZTU2)",-0.598
12,"ANKS3 (peptide sequence: GQVCQEQELR, peptide start residue: 527) (UniProt Q6ZW76)",0.242
13,"TSEN54 (peptide sequence: EHHAEAAQFQEDVNADPEVQR, peptide start residue: 354) (UniProt Q7Z6J9)",0.173
14,"UniProt Q86TM3 (peptide sequence: AAIETLIR, peptide start residue: 107)",0.0504
15,"UniProt Q76M96 (peptide sequence: KHEKLEK, peptide start residue: 539)",0.00488
16,"KCTD20 (peptide sequence: EYNFTRPNEK, peptide start residue: 152) (UniProt Q7Z5Y7)",-0.752
17,"UniProt Q7Z5K2 (peptide sequence: ALQHCEELIQQYNR, peptide start residue: 887)",-0.308
18,"DHX30 (peptide sequence: TKVSCLETVWVSR, peptide start residue: 761) (UniProt Q7L2E3)",0.966
